Measurements from paper PMC5465582.
No constants are given. Whether binding was seen depends on the method and setting. Binding seen in cells or lysates may run through a third protein. Some binding calls cover weakened binding; strength is not graded here. For part of these data: Where a sequence is shown, tags or fusion partners need not be part of it.

The chains behind the UniProt entries cited, without tags or fusion partners.
UniProt Q96GD4: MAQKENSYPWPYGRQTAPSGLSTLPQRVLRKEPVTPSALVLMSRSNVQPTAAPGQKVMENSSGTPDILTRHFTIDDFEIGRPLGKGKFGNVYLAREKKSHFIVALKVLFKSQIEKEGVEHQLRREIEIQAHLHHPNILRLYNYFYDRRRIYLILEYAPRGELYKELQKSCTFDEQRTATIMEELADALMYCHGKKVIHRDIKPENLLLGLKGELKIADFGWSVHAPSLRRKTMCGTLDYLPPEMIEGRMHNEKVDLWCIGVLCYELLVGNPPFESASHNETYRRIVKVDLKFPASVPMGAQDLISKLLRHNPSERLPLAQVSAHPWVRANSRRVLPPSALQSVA

Tests used:
AURKA-Flag = target: T1, AURKA-Flag (UniProt O14965); assay: co-IP; AURKA-Flag and AURKB-GFP co-transfected in U251 cells, lysed 48 h after transfection
T1 sequence: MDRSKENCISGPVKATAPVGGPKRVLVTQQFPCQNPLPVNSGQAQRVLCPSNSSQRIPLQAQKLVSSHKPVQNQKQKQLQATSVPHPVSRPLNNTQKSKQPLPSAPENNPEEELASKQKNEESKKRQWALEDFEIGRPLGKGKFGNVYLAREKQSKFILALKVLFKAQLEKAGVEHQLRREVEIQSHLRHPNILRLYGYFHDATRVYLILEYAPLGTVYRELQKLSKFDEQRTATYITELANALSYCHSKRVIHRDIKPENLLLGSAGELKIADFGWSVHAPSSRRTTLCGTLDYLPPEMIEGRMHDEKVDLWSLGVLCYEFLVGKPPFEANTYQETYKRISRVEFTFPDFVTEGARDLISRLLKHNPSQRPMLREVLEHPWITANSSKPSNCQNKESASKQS

[1] = target: T2, aurora kinase A (human (endogenous in U251)) (UniProt O14965); assay: co-IP; endogenous proteins, nuclear and cytoplasmic fractions of U251 cells (Nuclear Extract Kit); IP and Western blotting
T2 sequence: T1 sequence

[2] = target: T2, aurora kinase A (human (endogenous in U251)); assay: co-IP; endogenous proteins, U251 whole cell lysate in GLB+ buffer (10 mM Tris-HCl pH 7.5, 300 mM NaCl, 10 mM EDTA, 0.5% Triton X-100); 2 ug antibody with 500 ug lysate 12 h at 4 C, Protein G beads; also in cells transfected with pEGFP-C1-SIX3 (interaction not affected, less AURKB precipitated by the AURKA antibody)

binding (AURKA-Flag)	binding [1]	binding [2]	Substance
binds			AURKB-GFP (from UniProt Q96GD4 1-344)
	binds	binds	aurora kinase B (from UniProt Q96GD4 1-344)
